Measured values taken from patent US20190365818A1, “GENETICALLY-TAGGED STEM CELL LINES AND METHODS OF USE” (ALLEN INSTITUTE, priority 2017, published 2019).
For at least one compound, name, drawing or mass did not settle the structure.

Tested on: Golgi
Assay: Fluorescence quantification of 3D images: drug-induced Golgi reorganization
Format: cell-based, human
Conditions: GFP channel intensity summed over z-stack, 30-minute intervals, vs DMSO
Source text: The pipeline was prototyped using a small suite of well-characterized compounds that include brefeldin A, paclitaxel, rapamycin, wortmannin and staurosporine (FIG. 26A). Low-resolution imaging (24× magnification) was used to test a matrix of concentrations and time points for each compound of interest to establish an initial set of conditions for each perturbation. hiPSC colonies were monitored for morphologic changes using transmitted light (FIG. 26B) and an endogenously GFP-tagged structure, such as microtubules (FIG. 26C). After establishing an end point response for several compounds, high-resolution (120× magnification) imaging of multiple cell lines was performed under standardized perturbation parameters, in the presence of dyes to label the nucleus and cell membrane for reference purposes (FIG. 27). […] Cells were treated with the indicated perturbation agent at a pre-selected concentration and time point established in phase I.
Fluorescence quantification of the 3D images were used to analyze drug-induced Golgi reorganization, cytoskeleton reorganization, and cell junction reorganization. To quantify the relative abundance of each structure of interest (e.g. Golgi as presented above), the pixel intensities of the GFP channel (488 nm) were summed across the entire z-stack. […]

`CO[C@H]1C[C@@H]2CC[C@@H](C)[C@@](O)(O2)C(=O)C(=O)N2CCCC[C@H]2C(=O)O[C@H]([C@H](C)C[C@@H]2CC[C@@H](O)[C@H](OC)C2)CC(=O)[C@H](C)/C=C(\C)[C@@H](O)[C@@H](OC)C(=O)[C@H](C)C[C@H](C)/C=C/C=C/C=C/1C` [rapamycin] was tested, and the “effect on Golgi organization” value was “induced morphological reorganization of the golgi”.
